Results reported in patent publication US20200038383A1, “IMMEDIATE-RELEASE ABUSE DETERRENT CO[…] MEDICAMENTS FOR TREATING PAIN, ADD, ADHD AND OTHER SYNDROMES OR DISORDERS” (KEMPHARM, INC., priority 2016, published 2020).

Assay: Oral dose escalation study in rats
Conditions: oral solutions, escalating dosages

CN1CC[C@]23c4c5ccc(O)c4O[C@H]2C(=O)CC[C@H]3[C@H]1C5.Cl [hydromorphone hydrochloride, reference compound]
exposure (AUC) to hydromorphone at doses above the therapeutic level: approximately dose proportional
